## Primary screen of a compound library

Chains of the proteins cited; added tags and fusions are not shown.
UniProt I6X8D2, whole entry: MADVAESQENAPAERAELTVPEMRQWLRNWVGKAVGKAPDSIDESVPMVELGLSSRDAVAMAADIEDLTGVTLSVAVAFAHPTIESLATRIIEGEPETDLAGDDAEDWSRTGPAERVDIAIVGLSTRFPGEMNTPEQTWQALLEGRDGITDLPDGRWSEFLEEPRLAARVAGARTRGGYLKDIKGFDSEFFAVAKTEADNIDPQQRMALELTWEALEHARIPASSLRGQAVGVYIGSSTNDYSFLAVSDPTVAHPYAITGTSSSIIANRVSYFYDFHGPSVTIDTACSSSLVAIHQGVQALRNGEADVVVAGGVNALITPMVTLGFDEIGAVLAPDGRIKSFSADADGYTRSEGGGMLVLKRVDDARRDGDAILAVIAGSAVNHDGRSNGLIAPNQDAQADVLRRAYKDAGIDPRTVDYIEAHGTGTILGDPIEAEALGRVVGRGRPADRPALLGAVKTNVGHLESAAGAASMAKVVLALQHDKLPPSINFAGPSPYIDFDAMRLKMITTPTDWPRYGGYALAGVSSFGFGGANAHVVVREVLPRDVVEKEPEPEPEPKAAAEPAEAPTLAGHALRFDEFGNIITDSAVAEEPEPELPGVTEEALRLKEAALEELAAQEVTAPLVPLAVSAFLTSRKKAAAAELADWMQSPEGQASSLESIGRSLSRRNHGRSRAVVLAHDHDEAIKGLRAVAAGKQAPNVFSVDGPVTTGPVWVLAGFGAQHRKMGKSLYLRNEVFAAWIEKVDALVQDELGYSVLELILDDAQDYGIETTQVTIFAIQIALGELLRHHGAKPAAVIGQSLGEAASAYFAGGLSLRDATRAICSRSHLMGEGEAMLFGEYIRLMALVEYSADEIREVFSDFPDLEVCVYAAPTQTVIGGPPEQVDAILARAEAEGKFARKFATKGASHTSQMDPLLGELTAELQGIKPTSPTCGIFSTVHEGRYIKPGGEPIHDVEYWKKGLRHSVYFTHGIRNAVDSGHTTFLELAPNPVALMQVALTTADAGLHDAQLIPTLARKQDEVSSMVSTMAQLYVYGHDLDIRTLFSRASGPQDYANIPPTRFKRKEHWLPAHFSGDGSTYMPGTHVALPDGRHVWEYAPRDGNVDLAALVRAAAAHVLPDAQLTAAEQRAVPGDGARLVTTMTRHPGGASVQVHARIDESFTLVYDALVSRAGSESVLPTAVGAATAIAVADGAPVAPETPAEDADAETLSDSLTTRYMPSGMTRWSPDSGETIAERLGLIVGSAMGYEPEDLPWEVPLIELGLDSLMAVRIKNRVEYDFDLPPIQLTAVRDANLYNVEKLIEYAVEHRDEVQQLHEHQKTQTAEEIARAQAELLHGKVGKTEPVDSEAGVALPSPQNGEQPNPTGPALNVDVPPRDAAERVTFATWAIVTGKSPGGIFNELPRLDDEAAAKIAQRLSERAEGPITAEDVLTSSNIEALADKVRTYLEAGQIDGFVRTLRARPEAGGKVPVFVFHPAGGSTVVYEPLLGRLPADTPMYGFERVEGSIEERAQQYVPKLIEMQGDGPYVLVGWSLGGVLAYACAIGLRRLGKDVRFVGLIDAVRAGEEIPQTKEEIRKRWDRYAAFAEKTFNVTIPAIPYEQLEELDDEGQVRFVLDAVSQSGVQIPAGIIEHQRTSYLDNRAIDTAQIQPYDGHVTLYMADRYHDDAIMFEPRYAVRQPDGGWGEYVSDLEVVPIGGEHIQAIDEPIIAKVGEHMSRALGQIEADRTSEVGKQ

Data taken from ChEMBL document CHEMBL3988442, “University of Dundee, Small-Polar-MMV Screening Library” (2021).

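Polyketide synthase Pks13, Mycobacterium tuberculosis (UniProt I6X8D2). Enzyme assay of the thioesterase domain of polyketide synthase 13; the read-out is not stated. Concentration: 30 µM. Higher reads as stronger inhibition (inferred from which compounds were picked for retests). Of about 67,000 compounds tested this way, about 300 (0.46%) reached 50% or more in at least one test.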

Results are given as percent effect.
The controls that fix the scale are not given in the record; negative values are as filed.
The compounds are a random part of those screened.

SMILES	percent effect
O=S(=O)(Nc1cnc(N2CCOCC2)nc1)c1cccc(F)c1	-8.081
Cc1nn2cc(CNc3nccc(CCC(F)(F)F)n3)nc2s1	-33.34
CC(=O)c1ccc(CNC(=O)c2cc(C)nn2C)nc1C	-7.414
COCCN1CCC12CCN(C(=O)c1ccsc1)CC2	-36.43
Cc1csc(CN2CC[C@H]3C[C@H](c4ccncn4)O[C@@H]3C2)n1	-16.17
O=C(c1ccc2nncn2c1)N1CCCCC1Cn1cccn1 (centres unmarked)	-18.83
NC(=O)Cn1nc(-c2ccccc2F)ccc1=O	-68.31
O=C(N[C@@H]1CCC[C@@H](N2CCOCC2)[C@@H]1O)c1cc2ccccc2[nH]1	-8.368
O=C(O)Cc1cn2cc(C(F)(F)F)ccc2n1	-4.414
CCc1nccn1C1CCCN(C(=O)c2cnc3onc(C)c3c2)C1 (centres unmarked)	-16
O=C1[C@@H]2C[C@H](O)CCN2C(=O)CN1CCSc1ccccn1	-1.21
CCOC(=O)Cc1csc(NC(=O)c2cc3n(n2)CCCO3)n1	-20.06
CCOc1ncccc1CN1Cc2ncccc2C1=O	-23.69
Cn1c(-c2ccc(F)cc2)cn2cc(C(=O)N3CC[C@@H](O)C3)nc2c1=O	-5.476
O=C(Cn1ccc(-c2ccccc2)n1)N1CCN(C(=O)C2CC2)CC1	-8.837
c1cncc(-c2nccc(CN3CCCC3)n2)c1	-47.3
Cc1occc1C(=O)N1C[C@H]2CCCC(OCc3cccnc3)[C@H]2C1 (some centres unmarked)	-5.624
CCC1CN(C(=O)c2csc(-c3cnn(C)c3)n2)CCO1 (centres unmarked)	-37.54
c1ccc(OCC2C[C@@H]3[C@@H](C2)OCCN3CC2CCOCC2)nc1 (some centres unmarked)	-0.02458
O=C(Cn1cc(C(=O)O)cn1)Nc1c(Cl)cccc1Cl	-6.805
COc1cc2c(cc1OC)CCN(C(=O)Cn1nc(C)cc1C)CC2	-14.44
Cc1cccc(CN2CCN(C(=O)[C@@H]3CSCN3C)CC2)c1	-18.02
O=S1(=O)COCCN1Cc1ccc(Cl)c(Cl)c1	-12.06
CNC(=O)[C@H]1C[C@@H]2CN(S(=O)(=O)c3cccc(C)c3)C[C@@H]2N1C	11.72
c1cnc(NCC2Cn3nnc(-c4ccoc4)c3CO2)nc1 (centres unmarked)	6.262
CCCc1cc(NC2CCc3nc(C)nn3C2)n2ncnc2n1 (centres unmarked)	-13.54
CC(NC(N)=O)C(=O)N(C)CCCc1cc(-c2ccccc2)no1 (centres unmarked)	3.749
O=C1CCN(C(=O)NCc2ccccc2Oc2ccccc2)CCN1	-5.527
O=C1COc2c(cccc2C(=O)N2CCCC(n3cccn3)C2)N1 (centres unmarked)	-20.78
Cc1ccccc1C(=O)N1Cc2c(Cn3ccnc3)nn(C)c2C1	-3.537
O=C1NC[C@H]2CN(Cc3ccccn3)CCN12	9.18
Cc1nn(C)cc1C(=O)N1CCCC(n2nnc3cc(F)ccc32)C1 (centres unmarked)	1.612
CCc1ncc2c(n1)CN(C(=O)c1c(C)[nH]c(C(C)=O)c1C)C2	-29.33
Cc1noc(C)c1CN1C[C@@H]2CN(C(=O)c3cnccn3)C[C@@H]2C1	-42.1
CS(=O)(=O)N1C[C@@H]2CC[C@H](C1)N(Cc1cscn1)C2=O	-27.72
CC(C)N(CCNc1nc(C2CCCC2)nc2c1cnn2C)C(C)C	-11.59
O=C(C1CCCO1)N1CCCn2c(nnc2Cn2cccn2)C1 (centres unmarked)	-16.1
CCCn1cc(Cl)c(C(=O)N2C[C@@H](O)[C@H](Oc3ccccc3)C2)n1	36.7
CC(=O)N1CCCC1(C)c1nc(C)no1 (centres unmarked)	2.956
O=C(c1ccc(Br)o1)N1CCN(Cc2ccc(OC(F)(F)F)cc2)CC1	-15.49
CN(c1ccc(C(N)=O)nn1)C1CCC1	-19.77
CCN(Cc1ccc(O)c(C(=O)O)c1)CC1CCCO1 (centres unmarked)	-1.263
Cc1nn(CC(=O)N2CCN(Cc3cnn(C)c3C)CC2)cc1Br	-9.141
CC(NC(=O)N1CCC2(C1)OCCO2)c1cccc(Cl)c1 (centres unmarked)	-13.1
Cn1cc(-c2cnc(-c3ccnn3C)nc2)cc1C(=O)NC1CC1	6.737
Cc1cccc(OCCCNC(=O)NC(C)c2nncn2C)c1 (centres unmarked)	-9.076
Cc1cc(N2CCC(Cc3cccnc3)CC2)ncn1	-21.48
CC(C)N1CCC(N(C)c2ccnc(N(C)C)n2)CC1	-15.86
CCOc1cc(=O)n2c(c1C(=O)OCc1ccc(C)cc1)CCCC2	-19.44
Cc1cc(C)c2c(c1)C(NCc1c(C)nn(C)c1N(C)C)CCO2 (centres unmarked)	-25.34
O=C(CN(CC1CCC1)CC(F)(F)F)N1CCOCC1	-25.89
CCc1cc(N2CCC(NCCc3ccc(C)o3)CC2)nc(C)n1	5.58
CCc1c(C(=O)N2CCN(c3ncccn3)CC2)cnn1C(C)(C)C	-12.83
Cc1nc(CN2CCCCC2Cn2cccn2)nc2ccccc12 (centres unmarked)	-4.193

5 of the entries, repeated:

| SMILES | percent effect |
|---|---|
| `c1cncc(-c2nccc(CN3CCCC3)n2)c1` | -47.3 |
| `O=C(Cn1cc(C(=O)O)cn1)Nc1c(Cl)cccc1Cl` | -6.805 |
| `Cc1csc(CN2CC[C@H]3C[C@H](c4ccncn4)O[C@@H]3C2)n1` | -16.17 |
| `O=C1COc2c(cccc2C(=O)N2CCCC(n3cccn3)C2)N1` (centres unmarked) | -20.78 |
| `Cc1nc(CN2CCCCC2Cn2cccn2)nc2ccccc12` (centres unmarked) | -4.193 |